Test results taken from US9995740B2, “Method of determining temperature and method of detecting a target peptide” (SYSMEX CORPORATION, priority 2015, dated 2018).
At least one compound was matched to its structure with a doubt left. Residues, ends and D or L forms follow the SMILES beside them.

By UniProt entry, the sequences of proteins in these tests, tags left out. Residues count along the entry.
UniProt P02768, 25-609: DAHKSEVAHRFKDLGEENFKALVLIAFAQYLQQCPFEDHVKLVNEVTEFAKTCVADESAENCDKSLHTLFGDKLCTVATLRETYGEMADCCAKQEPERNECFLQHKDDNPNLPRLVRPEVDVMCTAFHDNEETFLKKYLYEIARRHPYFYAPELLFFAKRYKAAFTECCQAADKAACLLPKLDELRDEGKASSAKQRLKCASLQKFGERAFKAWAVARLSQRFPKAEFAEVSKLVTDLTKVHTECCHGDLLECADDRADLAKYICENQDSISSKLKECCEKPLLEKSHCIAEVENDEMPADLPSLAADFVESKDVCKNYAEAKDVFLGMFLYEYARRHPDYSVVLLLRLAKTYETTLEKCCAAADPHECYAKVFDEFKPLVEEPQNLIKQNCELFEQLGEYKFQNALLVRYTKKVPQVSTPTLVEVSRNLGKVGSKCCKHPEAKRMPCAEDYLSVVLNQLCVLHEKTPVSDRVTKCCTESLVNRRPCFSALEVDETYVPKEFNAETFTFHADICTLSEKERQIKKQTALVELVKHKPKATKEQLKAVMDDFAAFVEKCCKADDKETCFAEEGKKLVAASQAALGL

Legend:
[1] = Isoelectric point (pI) of the peptides of Table 3; assay type: physicochemical
HSA = biological target: T1, HSA (Homo sapiens, UniProt P02768); experiment: Kd of TMR-labeled peptide for HSA by fluorescence intensity difference and Hill's equation; assay type: binding; settings: classified by Kd for HSA, 500 μM or more = suitable
T1 construct: purchased Sigma-Aldrich Co. LLC
Method: Each of the resulting mixtures was subjected to measurement with a spectrophotofluorometer [product name: F-7000, manufactured by Hitachi High-Technologies Corporation] and the fluorescence intensity with an excitation wavelength of 540 nm and a fluorescence wavelength of 580 nm (hereinafter, referred to as “fluorescence intensity A”) was measured.
Each of the resulting mixtures was subjected to measurement with a spectrophotofluorometer [product name: F-7000, manufactured by Hitachi High-Technologies Corporation] and the fluorescence intensity with an excitation wavelength of 540 nm and a fluorescence wavelength of 580 nm (hereinafter, referred to as “fluorescence intensity B”) was measured.
Equation (I): Difference between fluorescence intensities=fluorescence intensity A−fluorescence intensity B (I)
A difference between the fluorescence intensities was determined in accordance with the above equation.

What does the source list for NC(N)=NCCC[C@H](NC(=O)[C@H](Cc1ccccc1)NC(=O)[C@@H]1CCCN1C(=O)[C@H](CO)NC(=O)[C@H](Cc1ccccc1)NC(=O)CNC(=O)[C@@H]1CCCN1C(=O)[C@@H]1CCCN1C(=O)[C@@H](N)CCCN=C(N)N)C(=O)O [Bradykinin] (H-RPPGFSPFR-OH)?
pI [1]: 12; suitability as linker peptide of the peptide for temperature determination (FIG. 8) (HSA): suitable
